Measurements published in publication PMC3266667 (Frontiers in Pharmacology, 2012).

By UniProt entry, the sequences of proteins in these tests, tags left out. Where a name states a change or a piece, a line headed by the entry shows the natural chain unless it says otherwise.
UniProt Q12809: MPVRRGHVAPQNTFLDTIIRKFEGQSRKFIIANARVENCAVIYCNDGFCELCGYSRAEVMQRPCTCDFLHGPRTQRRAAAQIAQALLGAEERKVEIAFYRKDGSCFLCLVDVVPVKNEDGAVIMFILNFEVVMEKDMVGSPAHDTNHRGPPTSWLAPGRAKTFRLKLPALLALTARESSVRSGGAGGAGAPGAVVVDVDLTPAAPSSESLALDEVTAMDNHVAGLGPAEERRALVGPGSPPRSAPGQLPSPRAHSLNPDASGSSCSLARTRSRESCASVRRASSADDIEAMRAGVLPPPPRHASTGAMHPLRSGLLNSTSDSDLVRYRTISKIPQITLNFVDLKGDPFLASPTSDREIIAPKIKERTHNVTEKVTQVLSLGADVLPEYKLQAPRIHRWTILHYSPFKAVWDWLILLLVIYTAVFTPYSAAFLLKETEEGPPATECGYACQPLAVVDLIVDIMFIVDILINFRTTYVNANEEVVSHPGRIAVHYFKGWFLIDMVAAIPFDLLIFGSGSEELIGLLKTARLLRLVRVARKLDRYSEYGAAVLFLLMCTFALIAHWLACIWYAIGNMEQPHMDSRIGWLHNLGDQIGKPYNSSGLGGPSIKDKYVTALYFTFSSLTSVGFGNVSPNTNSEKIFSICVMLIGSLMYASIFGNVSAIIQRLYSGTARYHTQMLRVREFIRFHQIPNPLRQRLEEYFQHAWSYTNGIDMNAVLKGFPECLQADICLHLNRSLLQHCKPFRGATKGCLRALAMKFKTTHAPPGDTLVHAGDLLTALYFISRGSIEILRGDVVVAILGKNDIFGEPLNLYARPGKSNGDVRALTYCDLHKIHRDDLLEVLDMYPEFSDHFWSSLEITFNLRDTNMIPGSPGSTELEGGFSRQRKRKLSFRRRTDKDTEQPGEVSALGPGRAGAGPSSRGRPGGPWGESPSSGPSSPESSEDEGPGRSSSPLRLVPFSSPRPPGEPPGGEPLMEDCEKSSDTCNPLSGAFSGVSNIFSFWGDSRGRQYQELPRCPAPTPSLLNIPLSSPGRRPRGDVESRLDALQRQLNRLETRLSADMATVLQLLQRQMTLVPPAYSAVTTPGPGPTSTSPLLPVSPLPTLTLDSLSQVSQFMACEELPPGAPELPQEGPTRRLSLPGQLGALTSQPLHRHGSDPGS

Biological target: hERG K+ channels (Homo sapiens, UniProt Q12809)

Structure (SMILES): CN1CCC[C@@H]1CCO[C@](C)(c1ccccc1)c1ccc(Cl)cc1 [Clemastine]
- effect on the hERG current (in words): IC50 values in the low and mid-nanomolar range
